Measurements as given in US8501992B2, “Hydroxyphenyl sulfonamides as antiapoptotic bcl inhibitors” (Bristol-Myers Squibb Company, priority 2008, dated 2013).
Some results were stated once for a whole list of compounds, not compound by compound.

biological target: T1, Bcl-b (Homo sapiens, UniProt Q9HD36); assay: Bclb/Bim fluorescence polarization assay (FPA); format: binding; details: BIM BH3 peptide 5 nM, Bcl-b 40 nM, Ki calculated from FPA data
T1 construct: without their C-terminal transmembrane domain; GST; made in house
T1 sequence (Q9HD36 1-182 limits assumed): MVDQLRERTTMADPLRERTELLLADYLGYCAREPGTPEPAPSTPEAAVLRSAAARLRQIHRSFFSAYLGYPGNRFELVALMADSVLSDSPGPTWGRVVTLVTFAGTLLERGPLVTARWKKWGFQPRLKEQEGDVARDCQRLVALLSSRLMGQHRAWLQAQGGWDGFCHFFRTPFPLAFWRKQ

Ki, ≤ 10 µM:
CC(C)(C)NC(=O)c1ccc(CN(Cc2ccc(F)cc2)S(=O)(=O)c2cc(Cl)cc(Cl)c2O)cc1 [Example 154, N-tert-Butyl-4-((3,5-dichloro-N-(4-fluorobenzyl)-2-hydroxyphenylsulfonamido)methyl)-benzamide]
CC(NC(=O)c1ccc(CN(Cc2ccc(F)cc2)S(=O)(=O)c2cc(Cl)cc(Cl)c2O)cc1)c1ccccc1 (stereo not shown) [Example 155, 4-((3,5-Dichloro-N-(4-fluorobenzyl)-2-hydroxyphenylsulfonamido)methyl)-N-(1-phenylethyl)benzamide]
O=C(NCc1ccccc1)c1ccc(CN(Cc2ccc(F)cc2)S(=O)(=O)c2cc(Cl)cc(Cl)c2O)cc1 [Example 156, N-Benzyl-4-((3,5-dichloro-N-(4-fluorobenzyl)-2-hydroxyphenylsulfonamido)methyl)-benzamide]
CC(C)(C)CNC(=O)c1ccc(CN(Cc2ccc(F)cc2)S(=O)(=O)c2cc(Cl)cc(Cl)c2O)cc1 [Example 157, 4-((3,5-Dichloro-N-(4-fluorobenzyl)-2-hydroxyphenylsulfonamido)methyl)-N-neopentylbenzamide]
O=C(NCc1ccc(C(F)(F)F)cc1)c1ccc(CN(Cc2ccc(F)cc2)S(=O)(=O)c2cc(Cl)cc(Cl)c2O)cc1 [Example 158, 4-((3,5-Dichloro-N-(4-fluorobenzyl)-2-hydroxyphenylsulfonamido)methyl)-N-(4-(trifluoromethyl)benzyl)benzamide]
CC(C)CN(C)C(=O)c1ccc(CN(Cc2ccc(F)cc2)S(=O)(=O)c2cc(Cl)cc(Cl)c2O)cc1 [Example 159, 4-((3,5-Dichloro-N-(4-fluorobenzyl)-2-hydroxyphenylsulfonamido)methyl)-N-isobutyl-N-methylbenzamide]
CC(C)N(C)C(=O)c1ccc(CN(Cc2ccc(F)cc2)S(=O)(=O)c2cc(Cl)cc(Cl)c2O)cc1 [Example 160, 4-((3,5-Dichloro-N-(4-fluorobenzyl)-2-hydroxyphenylsulfonamido)methyl)-N-isopropyl-N-methylbenzamide]
O=C(Nc1ccc2ncsc2c1)c1ccc(CN(Cc2ccc(F)cc2)S(=O)(=O)c2cc(Cl)cc(Cl)c2O)cc1 [Example 161, N-(Benzo[d]thiazol-6-yl)-4-((3,5-dichloro-N-(4-fluorobenzyl)-2-hydroxyphenylsulfonamido)methyl)-benzamide]
CN(C)c1ccc(NC(=O)c2ccc(CN(Cc3ccc(F)cc3)S(=O)(=O)c3cc(Cl)cc(Cl)c3O)cc2)cc1 [Example 162, 4-((3,5-Dichloro-N-(4-fluorobenzyl)-2-hydroxyphenylsulfonamido)methyl)-N-(4-(dimethylamino)phenyl)benzamide]
CCOC(=O)CC(C)NC(=O)c1ccc(CN(Cc2ccc(F)cc2)S(=O)(=O)c2cc(Cl)cc(Cl)c2O)cc1 (stereo not shown) [Example 163, Ethyl 3-(4-((3,5-dichloro-N-(4-fluorobenzyl)-2-hydroxyphenylsulfonamido)methyl)-benzamido)butanoate]
CN1C(=O)[C@@H](NC(=O)c2ccc(CN(Cc3ccc(F)cc3)S(=O)(=O)c3cc(Cl)cc(Cl)c3O)cc2)N=C(c2ccccc2)c2ccccc21 [Example 164, (S,Z)-4-((3,5-Dichloro-N-(4-fluorobenzyl)-2-hydroxyphenylsulfonamido)methyl)-N-(1-methyl-2-oxo-5-phenyl-2,3-dihydro-1H-benzo[e][1,4]diazepin-3-yl)benzamide]
CN1C(=O)[C@H](NC(=O)c2ccc(CN(Cc3ccc(F)cc3)S(=O)(=O)c3cc(Cl)cc(Cl)c3O)cc2)N=C(c2ccccc2)c2ccccc21 [Example 165, (R,Z)-4-((3,5-Dichloro-N-(4-fluorobenzyl)-2-hydroxyphenylsulfonamido)methyl)-N-(1-methyl-2-oxo-5-phenyl-2,3-dihydro-1H-benzo[e][1,4]diazepin-3-yl)benzamide]
COc1cc(C(=O)N(Cc2ccc(F)cc2)Cc2cc(Cl)cc(Cl)c2)ccc1CN(Cc1ccc(F)cc1)S(=O)(=O)c1cc(Cl)cc(Cl)c1O [Example 166, 4-((3,5-Dichloro-N-(4-fluorobenzyl)-2-hydroxyphenylsulfonamido)methyl)-N-(3,5-dichlorobenzyl)-N-(4-fluorobenzyl)-3-methoxybenzamide]
CC(C)CN(Cc1ccc(C(=O)N(Cc2ccc(F)cc2)Cc2cc(Cl)cc(Cl)c2)cc1)S(=O)(=O)c1cc(Cl)cc(Cl)c1O [Example 167, 4-((3,5-Dichloro-2-hydroxy-N-isobutylphenylsulfonamido)methyl)-N-(3,5-dichlorobenzyl)-N-(4-fluorobenzyl)benzamide]
CC(C)CCN(Cc1ccc(C(=O)N(Cc2ccc(F)cc2)Cc2cc(Cl)cc(Cl)c2)cc1)S(=O)(=O)c1cc(Cl)cc(Cl)c1O [Example 168, 4-((3,5-Dichloro-2-hydroxy-N-isopentylphenylsulfonamido)methyl)-N-(3,5-dichlorobenzyl)-N-(4-fluorobenzyl)benzamide]
CC(C)CCCN(Cc1ccc(C(=O)N(Cc2ccc(F)cc2)Cc2cc(Cl)cc(Cl)c2)cc1)S(=O)(=O)c1cc(Cl)cc(Cl)c1O [Example 169, 4-((3,5-Dichloro-2-hydroxy-N-(4-methylpentyl)phenylsulfonamido)meth-yl)-N-(3,5-dichlorobenzyl)-N-(4-fluorobenzyl)benzamide]
O=C(c1ccc(CN(CC2CCCCC2)S(=O)(=O)c2cc(Cl)cc(Cl)c2O)cc1)N(Cc1ccc(F)cc1)Cc1cc(Cl)cc(Cl)c1 [Example 170, 4-((3,5-Dichloro-N-(cyclohexylmethyl)-2-hydroxyphenylsulfonamido)methyl)-N-(3,5-dichlorobenzyl)-N-(4-fluorobenzyl)benzamide]
CC(C)=CCN(Cc1ccc(C(=O)N(Cc2ccc(F)cc2)Cc2cc(Cl)cc(Cl)c2)cc1)S(=O)(=O)c1cc(Cl)cc(Cl)c1O [Example 171, 4-((3,5-Dichloro-2-hydroxy-N-(3-methylbut-2-enyl)phenylsulfonamido)methyl)-N-(3,5-dichlorobenzyl)-N-(4-fluorobenzyl)benzamide]
CC(C)COc1ccc(CN(Cc2ccc(C(=O)N(Cc3ccc(F)cc3)Cc3cc(Cl)cc(Cl)c3)cc2)S(=O)(=O)c2cc(Cl)cc(Cl)c2O)cc1 [Example 172, 4-((3,5-Dichloro-2-hydroxy-N-(4-isobutoxybenzyl)phenylsulfonamido)-methyl)-N-(3,5-dichlorobenzyl)-N-(4-fluorobenzyl)benzamide]
CC(C)COc1cccc(CN(Cc2ccc(C(=O)N(Cc3ccc(F)cc3)Cc3cc(Cl)cc(Cl)c3)cc2)S(=O)(=O)c2cc(Cl)cc(Cl)c2O)c1 [Example 173, 4-((3,5-Dichloro-2-hydroxy-N-(3-isobutoxybenzyl)phenylsulfonamido)-methyl)-N-(3,5-dichlorobenzyl)-N-(4-fluorobenzyl)benzamide]
O=C(c1ccc(CN(Cc2cccc(-c3ccc(Cl)cc3)c2)S(=O)(=O)c2cc(Cl)cc(Cl)c2O)cc1)N(Cc1ccc(F)cc1)Cc1cc(Cl)cc(Cl)c1 [Example 174, 4-((3,5-Dichloro-N-((4′-chlorobiphenyl-3-yl)methyl)-2-hydroxyphenylsulfonamido)methyl)-N-(3,5-dichlorobenzyl)-N-(4-fluorobenzyl)benzamide]
O=C(c1ccc(N(Cc2ccc(F)cc2)S(=O)(=O)c2cc(Cl)cc(Cl)c2O)cc1)N(Cc1ccc(F)cc1)Cc1cc(Cl)cc(Cl)c1 [Example 175, 4-(3,5-Dichloro-N-(4-fluorobenzyl)-2-hydroxyphenylsulfonamido)-N-(3,5-dichlorobenzyl)-N-(4-fluorobenzyl)benzamide]
O=S(=O)(c1cc(Cl)cc(Cl)c1)N(CCO)Cc1ccc(CN(Cc2ccc(F)cc2)S(=O)(=O)c2cc(Cl)cc(Cl)c2O)cc1 [Example 176]
O=S(=O)(c1ccccc1)N(Cc1ccc(F)cc1)Cc1ccc(CN(Cc2ccc(F)cc2)S(=O)(=O)c2cc(Cl)cc(Cl)c2O)cc1 [Example 177, 3,5-Dichloro-N-(4-fluorobenzyl)-N-(4-((N-(4-fluorobenzyl)phenylsulfonamido)-methyl)benzyl)-2-hydroxybenzenesulfonamide]
O=S(=O)(c1cc(Cl)cc(Cl)c1O)N(Cc1ccc(F)cc1)Cc1ccc(CN(Cc2ccncc2)Cc2ccncc2)cc1 [Example 178, N-(4-((Bis(pyridin-4-ylmethyl)amino)methyl)benzyl)-3,5-dichloro-N-(4-fluorobenzyl)-2-hydroxybenzenesulfonamide]
O=S(=O)(c1cc(Cl)cc(Cl)c1)N(Cc1ccc(CN(Cc2ccc(F)cc2)S(=O)(=O)c2cc(Cl)cc(Cl)c2O)cc1)Cc1ccccn1 [Example 179]
O=C(c1ccccc1)c1ccc(CN(Cc2ccc(F)cc2)S(=O)(=O)c2cc(Cl)cc(Cl)c2O)cc1 [Example 180, N-(4-Benzoylbenzyl)-3,5-dichloro-N-(4-fluorobenzyl)-2-hydroxybenzenesulfonamide]
Cc1ccc(C(=O)c2ccc(CN(Cc3ccc(F)cc3)S(=O)(=O)c3cc(Cl)cc(Cl)c3O)cc2)cc1 [Example 181]
O=S(=O)(c1cc(Cl)cc(Cl)c1O)N(Cc1ccc(F)cc1)Cc1ccc(C(O)c2ccccc2)cc1 (stereo not shown) [Example 182, 3,5-Dichloro-N-(4-fluorobenzyl)-2-hydroxy-N-(4-(hydroxy(phenyl)methyl)benzyl)benzenesulfonamide]
O=S(=O)(c1cc(Cl)cc(Cl)c1O)N(Cc1ccc(F)cc1)Cc1ccc(Cc2ccccc2)cc1 [Example 183, N-(4-Benzylbenzyl)-3,5-dichloro-N-(4-fluorobenzyl)-2-hydroxybenzenesulfonamide]
CC(C)CN(Cc1cccc(CN(Cc2ccc(-c3ccc(F)cc3)cc2)S(=O)(=O)c2cc(Cl)cc(Cl)c2O)c1)C(=O)c1ccccc1Oc1ccccc1 [Example 184, N-(3-((3,5-Dichloro-N-((4′-fluorobiphenyl-4-yl)methyl)-2-hydroxyphenylsulfonamido)methyl)benzyl)-N-isobutyl-2-phenoxybenzamide]
